Data published in paper PMC9674771.
These are yes or no findings as the source states them, for the method shown. Binding seen in cells or lysates may run through a third protein. These calls come from enrichment with a bait or labelling near it, and not all partners need be listed.

By UniProt entry, the sequences of proteins in these tests, tags left out.
UniProt Q14790: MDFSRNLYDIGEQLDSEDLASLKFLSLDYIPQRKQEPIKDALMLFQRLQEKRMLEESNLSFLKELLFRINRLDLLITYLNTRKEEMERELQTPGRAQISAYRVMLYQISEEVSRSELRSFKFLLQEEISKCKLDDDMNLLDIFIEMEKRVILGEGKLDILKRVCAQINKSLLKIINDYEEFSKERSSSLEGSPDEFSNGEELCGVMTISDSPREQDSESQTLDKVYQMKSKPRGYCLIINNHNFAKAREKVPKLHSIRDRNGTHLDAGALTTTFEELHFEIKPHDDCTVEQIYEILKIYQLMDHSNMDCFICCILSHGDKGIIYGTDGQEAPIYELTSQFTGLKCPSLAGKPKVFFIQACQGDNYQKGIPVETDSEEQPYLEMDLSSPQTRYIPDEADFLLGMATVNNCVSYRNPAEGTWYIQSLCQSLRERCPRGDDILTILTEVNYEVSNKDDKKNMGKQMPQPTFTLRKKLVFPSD
UniProt P50750: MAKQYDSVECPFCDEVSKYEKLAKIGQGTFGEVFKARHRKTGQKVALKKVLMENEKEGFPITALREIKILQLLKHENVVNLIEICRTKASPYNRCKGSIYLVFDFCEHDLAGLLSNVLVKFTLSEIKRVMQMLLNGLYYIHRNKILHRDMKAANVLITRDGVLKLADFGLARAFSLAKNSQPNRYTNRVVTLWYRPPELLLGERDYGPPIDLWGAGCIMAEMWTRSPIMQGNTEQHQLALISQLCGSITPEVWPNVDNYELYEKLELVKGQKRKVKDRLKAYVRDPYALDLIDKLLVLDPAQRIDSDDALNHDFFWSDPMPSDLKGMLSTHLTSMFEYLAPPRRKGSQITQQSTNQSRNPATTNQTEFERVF

Biological target: Caspase-8 (endogenous) (human (endogenous in HeLa and SiHa)) (UniProt Q14790)
Assay: affinity purification with mass spectrometry; Caspase-8 immunoprecipitated from non-synchronized and S/G2-phase synchronized HeLa WT cells; co-IP run on a 12% SDS-PAGE gel, LC-MS; negative controls were the IP from HeLa KO cells and IgG

binding: binds
Substance: CDK9 (endogenous) (from UniProt P50750 1-372)
